In patent US11827543B2, “Method for continuous supply of superoxide-containing peracetate oxidant solution” (Clean Chemistry, Inc., priority 2014, dated 2023):

Assay: Jar test water parameters (hardness, calcium, magnesium, chloride, sodium, aluminum, iron, TSS, turbidity)
Settings: for Iron (mg/L, total), after polymer / TSS (mg/L), after polymer / Iron (mg/L, total), oxidant only / TSS (mg/L), oxidant only: Example 18; for Iron (mg/L, total), after polymer / TSS (mg/L), after polymer: 0.30 mmol/L oxidant then 0.5 mg/L Polymer B-40; for Iron (mg/L, total), oxidant only / TSS (mg/L), oxidant only: 0.30 mmol/L oxidant; for Iron (mg/L, total), oxidant only / Iron (mg/L, total): untreated 76; for TSS (mg/L), oxidant only / TSS: untreated 264; for total iron: Piceance water, untreated 35 mg/L; for Aluminum (mg/L, total): untreated 2.1; for Sodium: untreated 7000; for Chloride (mg/L): untreated 12,700; for turbidity (in TSS line): untreated TSS 264 mg/L
[1] = produced water, Example 17, 29 mg/L
[2] = produced water, Example 17, 29 mg/L plus 5 mg/L Polymer B-40
[3] = produced water, Example 17, 29 mg/L plus 5 mg/L floc aid
[4] = produced water, Example 17, 52 mg/L
[5] = produced water, Example 17, 52 mg/L, listed as Sodium Peracetate Oxidant

[O][Cl+][O-] [chlorine dioxide, reference compound]
Iron (mg/L, total), after polymer (produced water): 5.8 mg/L
TSS (mg/L), after polymer (produced water): 97 mg/L
Iron (mg/L, total), oxidant only (produced water): 64 mg/L
TSS (mg/L), oxidant only (produced water): 756 mg/L

CC(=O)O[O-].[Na+] [sodium peracetate oxidant, sodium peracetate]
dissolved iron (Denver-Julesburg oil-water sample, 40 mg/L oxidant (as PAA), untreated 57 mg/L): about 47 mg/L
total iron (80 mg/L oxidant (as PAA) with anionic polymer): about 18 mg/L
total iron (100 mg/L oxidant (as PAA) with anionic polymer): about 8 mg/L
Aluminum concentration reduction [1]: about 40%
sodium concentration reduction [1]: about 30%
Aluminum concentration reduction [2]: about 95%
Calcium concentration decrease [2]: about 13%
sodium concentration reduction [2]: about 35%
Aluminum (mg/L, total) [3]: 0.1 mg/L
Iron (mg/L, total) [3]: about 1.7 mg/L
Iron (mg/L, total) (produced water, Example 17, 29 mg/L plus 5 mg/L floc aid, listed as Sodium Peracetate Oxidant): 1.7 mg/L
TSS [3]: 27 mg/L
Sodium [3]: 4560 mg/L
Chloride (mg/L) [3]: 12,900 mg/L
Aluminum (mg/L, total) [1]: 1.2 mg/L
Iron (mg/L, total) [1]: 16 mg/L
TSS [1]: 194 mg/L
Sodium [1]: 4760 mg/L
Chloride (mg/L) [1]: 12,500 mg/L
Iron (mg/L, total) [4]: about 1 mg/L
Iron (mg/L, total) [5]: 1 mg/L
turbidity (in TSS line) [4]: 24 FAU
turbidity (in TSS line) [5]: (24 FAU,
Iron (mg/L, total), after polymer (produced water): 2.4 mg/L
TSS (mg/L), after polymer (produced water): 32 mg/L
Iron (mg/L, total), oxidant only (produced water): 16 mg/L
TSS (mg/L), oxidant only (produced water): 194 mg/L
